Data as given in PubChem BioAssay AID686943 (Drosophila RNAi Screening Center, 2013)
Assay: 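Fly genes whose loss alters ERK activation after insulin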 (primary screen). System: Drosophila S2R+ haemocyte-like cells expressing YFP-tagged ERK (Rolled). Knock-down reagent: long dsRNA against Drosophila genes. Challenge: insulin stimulation versus unstimulated cells; dose and duration not given. Read-out: 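Antibody staining for doubly phosphorylated ERK divided by ERK-YFP signal, as plate z-scores, in insulin-treated and untreated cells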. Reading the numbers: replicate 1, z-score of dpERK with insulin and replicate 2, z-score of dpERK with insulin: higher = more active ERK per ERK-YFP after insulin.
The deposit covers about 23,000 reagents; below is a random part of those with a known target gene and a result. 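Extra replicates exist only for a retested subset of genes; insulin dose and duration not given; both raised and lowered dpERK matter.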 A plus sign joins genes that one reagent is predicted to hit. Not all columns of the deposit are shown. Reagent sequences are not shown. The record does not give: the amount of reagent, the time to read-out.

lt (GeneID 3355130) scored replicate 1, z-score of dpERK with insulin -0.45; replicate 2, z-score of dpERK with insulin 0.08.
For Myo95E (GeneID 2768680), the values are replicate 1, z-score of dpERK with insulin -0.35; replicate 2, z-score of dpERK with insulin -0.04.
With knock-down of Obp50c + Obp50b, the record shows replicate 1, z-score of dpERK with insulin -0.27; replicate 2, z-score of dpERK with insulin 0.32.
For Muc68E (GeneID 2768990), the entry reads replicate 1, z-score of dpERK with insulin 1.05; replicate 2, z-score of dpERK with insulin 0.11.
After knock-down of CG11414 (GeneID 37923), the record shows replicate 1, z-score of dpERK with insulin 0.69; replicate 2, z-score of dpERK with insulin 0.78.
Gclc (GeneID 53581) scored replicate 1, z-score of dpERK with insulin -1.34; replicate 2, z-score of dpERK with insulin 0.62.
Knock-down of olf186-M (GeneID 37039) resulted in: replicate 1, z-score of dpERK with insulin -0.5; replicate 2, z-score of dpERK with insulin -0.64.
CG9948 (GeneID 38757) showed replicate 1, z-score of dpERK with insulin -0.05; replicate 2, z-score of dpERK with insulin 0.08.
Depletion of Zpr1 (GeneID 31851) resulted in: replicate 1, z-score of dpERK with insulin -0.46; replicate 2, z-score of dpERK with insulin -1.04.
For CG31706 (GeneID 261621), the values are replicate 1, z-score of dpERK with insulin 0.06; replicate 2, z-score of dpERK with insulin 0.16.
clu (GeneID 36793) scored replicate 1, z-score of dpERK with insulin -0.12; replicate 2, z-score of dpERK with insulin -1.37.
With knock-down of CG14915 (GeneID 34536), the screen gave replicate 1, z-score of dpERK with insulin 0.22; replicate 2, z-score of dpERK with insulin -0.19.

Laid out differently: 2 of the entries above.
CG31706 (GeneID 261621)
- replicate 1, z-score of dpERK with insulin: 0.06
- replicate 2, z-score of dpERK with insulin: 0.16

clu (GeneID 36793)
- replicate 1, z-score of dpERK with insulin: -0.12
- replicate 2, z-score of dpERK with insulin: -1.37
